Measured data: PubChem BioAssay AID1159584 (Peter MacCallum Cancer Centre, 2016)

- Aim: 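Knock-downs that harm CDH1-null cells more than parental MCF10A cells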 (primary screen)
- Cells: human MCF10A breast epithelial cells, parental and CDH1-null
- Reagent: siRNA against human genes
- Measurement: 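Cell viability by CellTiter-Glo ATP luminescence, each line scaled to the mean of mock wells across plates, then CDH1-null over parental ratio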
- Scale: CDH1-null / parental viability ratio: higher = CDH1-null cells survive relatively better than parental
This is an unselected part of about 18,000 reagents tested. Not all columns of the deposit are shown. Not given: the amount of reagent, the time to read-out.

For TMEM47 the deposit lists CDH1-null / parental viability ratio 1.21.
With knock-down of ITGA4, the screen gave CDH1-null / parental viability ratio 0.98.
With knock-down of NR2F2, the record shows CDH1-null / parental viability ratio 1.01.
With knock-down of RAD1, the record shows CDH1-null / parental viability ratio 0.8.
After knock-down of TGM3, the record shows CDH1-null / parental viability ratio 1.27.
CD209 showed CDH1-null / parental viability ratio 1.1.
For MRGBP, the entry reads CDH1-null / parental viability ratio 0.91.
Knock-down of SOX7 gave: CDH1-null / parental viability ratio 1.27.
After knock-down of HAPLN1, the screen gave CDH1-null / parental viability ratio 1.61.
After knock-down of ZNF275, the screen gave CDH1-null / parental viability ratio 0.81.
Depletion of KCNIP2 resulted in: CDH1-null / parental viability ratio 1.38.
Silencing of SLURP1 came out at: CDH1-null / parental viability ratio 0.88.
After knock-down of TOX, the record shows CDH1-null / parental viability ratio 1.11.
For ASGR2, the entry reads CDH1-null / parental viability ratio 1.02.
PLA2G4D showed CDH1-null / parental viability ratio 0.7.
Knock-down of N4BP2 gave: CDH1-null / parental viability ratio 0.85.
Depletion of ZNF333 gave: CDH1-null / parental viability ratio 0.89.
Depletion of ZFC3H1 came out at: CDH1-null / parental viability ratio 1.17.
Depletion of FAM149A resulted in: CDH1-null / parental viability ratio 0.79.
GPBP1 scored CDH1-null / parental viability ratio 1.13.
For ZNF391, the values are CDH1-null / parental viability ratio 0.92.
Silencing of MAB21L3 resulted in: CDH1-null / parental viability ratio 0.87.
Against ZNF212, the values are CDH1-null / parental viability ratio 0.83.
After knock-down of SWAP70, the screen gave CDH1-null / parental viability ratio 1.32.
